Results on one molecule are retold here after CN110305216A.

These are yes or no findings as the source states them, for the method shown. Some results given as binding are weak or reduced against the parent protein; the word gives no strength.

Assay [1] addresses 食蟹猴TIM-3.ECD蛋白 (cynomolgus monkey). The experiment in a line: SPR; cynomolgus TIM-3.ECD immobilised on CM5 chip, W3402-z3 as analyte (Table 8 not given). On the technique in general: Surface plasmon resonance follows binding to a sensor surface in real time, without labels.
Assay [2] addresses 细胞表面食蟹猴TIM-3 (full-length cynomolgus TIM-3 on transfected cells) (cynomolgus monkey). The experiment in a line: flow cytometry on transfected cells (legend of Fig. 1). For orientation: A flow cytometer gives signals particle by particle.

B1: W3402-2.131.17-z3 (antibody, V domains shown)
VH: QVQLQESGPGLVKPSETLSLTCTVSGFSLTNYGVGWIRQPPGKGLEWIGIMTSGGSTYYNSALRARVTINRDTSKNQFSLKLSSVTAADTAVYYCTRDGTTVETLFDYWGQGTMVTVSS
VL: DIVMTQTPLSLSVTPGQPASISCRSSQSLSDSAGITYLYWYLQKPGQSPQLLIYLASNLGSGVPDRFSGSGSGTDFTLKISRVEAEDVGVYYCMQGIHVPLTFGQGTKLEIK
For the molecule B1, the binding entry in assay [1] and in assay [2] was “binds” throughout.
